The supplement of paper PMC12889115
The list shows a part of the results. These are raw signals, not scaled to a control.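 First-pass screen: polymyxin B was added at a level that permeabilizes the Salmonella outer membrane while sparing the inner membrane. DMSO wells, with and without polymyxin B, defined maximum growth. Because plates differed from one another, each plate's data were ranked separately and the compounds with the lowest OD600 were carried forward as hits.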

Test system: Salmonella enterica serovar Typhimurium SL1344
Assay: bacterial growth OD600 after 18 h with compound and polymyxin B; higher = more bacterial growth (less inhibition)
Settings: 50 µM, Mueller-Hinton broth

| Compound | bacterial growth OD600 (polymyxin B 0.75 µg/mL) | bacterial growth OD600 (polymyxin B 1 µg/mL) |
| --- | --- | --- |
| COc1cccc(CN2C(=O)NC(C)(C3CCN(C(=O)c4ccccc4Cl)CC3)C2=O)c1OC (stereo not given) | 0.816 |  |
| COc1cccc(N2C(=O)CN(C(=O)COc3ccc(C)cc3)CC2C)c1 (stereo not given) | 0.802 |  |
| O=C(CCc1cccnc1)NCc1nnc2n1CCN(C(=O)/C=C/c1cc(F)ccc1F)CC2 | 0.876 |  |
| COCCNC(=O)c1ccc(OC)cc1OC1CCN(Cc2ccc(Cl)c(F)c2)CC1 |  | 0.46 |
| CCOc1ccc2nc(N3CCCC(N(C)CCc4cn[nH]c4)CC3)nc(C)c2c1 (stereo not given) | 0.811 |  |
| COc1ccccc1CN1C(=O)O[C@@H]2CN(C(=O)NCc3ccccc3)C[C@@H]21 | 0.797 |  |
| Cc1ccc(-n2cc(CN3CCOCC3)c(-c3cccc(C)c3)n2)cc1 |  | 0.761 |
| COc1ccc(CCc2nnc(CCC(=O)N3CCC(c4ccc(F)cc4)C3)o2)cc1 (stereo not given) |  | 0.81 |
| O=C1CCC(C(=O)N2CCC(CCn3cccn3)CC2)CN1CC1CCCCC1 (stereo not given) |  | 0.985 |
| CCN1CCN(CC(=O)N2CCCC(CCc3ccccc3F)C2)CC1 (stereo not given) | 0.851 |  |
| COc1cccc(-c2ccc(NC(=O)C3CCCN(C(=O)c4cscn4)C3)cc2)c1 (stereo not given) |  | 0.642 |
| CSCCC(=O)NC1CCCc2nc(-c3ccccc3)ncc21 (stereo not given) |  | 0.931 |
| CCCc1cc(C(=O)NCc2nc(-c3ccc(NC(=O)c4ccc(COC)o4)cc3)oc2C)no1 | 0.006 |  |
| COc1cc(CC2(CCC(=O)N(C)Cc3nc4cc(C)c(C)cc4[nH]3)CCC(=O)N2)ccc1F (stereo not given) | 0.86 |  |
| C=C(C)CCC(C)N1CCC(N2CCC(C(=O)NCc3cccnc3)CC2)CC1 (stereo not given) |  | 1.11 |
| CCOC(=O)CC1COCCN1C(=O)c1csc2nc(-c3ccc(F)cc3)cn12 (stereo not given) |  | 1.23 |
| Cc1ccc2c(c1)CN(C(=O)CSc1ccccn1)CC(c1ccsc1)O2 (stereo not given) | 0.071 |  |
| CC(=O)c1ccc(F)c(-c2cc(C)cc3c2OC(CNC(=O)/C=C/c2ccccn2)C3)c1 (stereo not given) | 0.008 |  |
| O=C(Cn1cc2ccccc2n1)NC1CC(=O)N(Cc2ccc(F)cc2)C1 (stereo not given) |  | 0.873 |
| CC(C)C(=O)N1CCC(n2c(-c3ccc4c(c3)OCO4)nc3cc(C(F)(F)F)ccc32)CC1 | 0.798 |  |

Two entries from above in a different format:
O=C1CCC(C(=O)N2CCC(CCn3cccn3)CC2)CN1CC1CCCCC1 (stereo not given)
  bacterial growth OD600 (polymyxin B 1 µg/mL): 0.985
CCN1CCN(CC(=O)N2CCCC(CCc3ccccc3F)C2)CC1 (stereo not given)
  bacterial growth OD600 (polymyxin B 0.75 µg/mL): 0.851
